Reference: the supplement of paper PMC12823440, “Inhibitors supercharge kinase turnover through native proteolytic circuits” (Nature, 2025)
Where a name gives a salt, the structure may show the parent alone. The list shows a part of the results. Hit calls seldom repeat between salt and free forms of one compound.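 Kinases were expressed as nanoluciferase fusions in K562 cells and luminescence was read every 4 h between 2 and 18 h as percent of control, DMSO set to 100% and a positive control to 0%. A time point counts as decreased when the signal drops significantly (2 sigma). The hit call is the authors' own, does not follow from the count of time points alone, and its rule is not shown.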

Chains of the proteins cited; added tags and fusions are not shown. Lines headed by an entry give the natural chain unless they say otherwise; changes in a name come on top.
UniProt Q9UQM7, whole entry: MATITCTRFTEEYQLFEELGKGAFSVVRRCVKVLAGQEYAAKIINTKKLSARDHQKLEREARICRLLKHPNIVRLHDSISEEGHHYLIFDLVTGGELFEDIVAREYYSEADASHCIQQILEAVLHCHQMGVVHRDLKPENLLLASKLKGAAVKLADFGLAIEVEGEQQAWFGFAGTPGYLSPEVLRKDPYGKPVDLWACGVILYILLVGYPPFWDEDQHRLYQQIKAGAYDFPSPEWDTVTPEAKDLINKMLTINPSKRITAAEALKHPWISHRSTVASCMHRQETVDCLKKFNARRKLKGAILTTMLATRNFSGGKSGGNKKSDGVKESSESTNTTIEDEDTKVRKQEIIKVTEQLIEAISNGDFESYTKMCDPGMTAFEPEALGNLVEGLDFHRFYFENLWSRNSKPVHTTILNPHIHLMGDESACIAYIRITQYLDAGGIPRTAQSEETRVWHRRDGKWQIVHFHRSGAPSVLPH
UniProt Q13555: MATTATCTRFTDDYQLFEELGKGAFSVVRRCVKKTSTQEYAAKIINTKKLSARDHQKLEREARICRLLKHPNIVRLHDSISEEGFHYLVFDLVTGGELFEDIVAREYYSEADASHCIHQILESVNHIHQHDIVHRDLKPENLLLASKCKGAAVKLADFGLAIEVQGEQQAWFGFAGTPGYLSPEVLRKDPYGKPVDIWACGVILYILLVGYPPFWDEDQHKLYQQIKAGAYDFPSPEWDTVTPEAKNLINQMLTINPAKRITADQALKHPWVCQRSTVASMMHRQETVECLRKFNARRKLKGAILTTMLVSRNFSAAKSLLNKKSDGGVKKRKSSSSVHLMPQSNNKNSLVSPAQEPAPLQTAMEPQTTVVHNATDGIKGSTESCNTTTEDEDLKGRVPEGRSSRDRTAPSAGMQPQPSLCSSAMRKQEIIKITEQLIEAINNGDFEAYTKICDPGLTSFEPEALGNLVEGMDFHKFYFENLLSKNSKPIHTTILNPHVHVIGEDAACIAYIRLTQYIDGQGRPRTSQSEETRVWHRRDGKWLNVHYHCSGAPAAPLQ
UniProt Q15131: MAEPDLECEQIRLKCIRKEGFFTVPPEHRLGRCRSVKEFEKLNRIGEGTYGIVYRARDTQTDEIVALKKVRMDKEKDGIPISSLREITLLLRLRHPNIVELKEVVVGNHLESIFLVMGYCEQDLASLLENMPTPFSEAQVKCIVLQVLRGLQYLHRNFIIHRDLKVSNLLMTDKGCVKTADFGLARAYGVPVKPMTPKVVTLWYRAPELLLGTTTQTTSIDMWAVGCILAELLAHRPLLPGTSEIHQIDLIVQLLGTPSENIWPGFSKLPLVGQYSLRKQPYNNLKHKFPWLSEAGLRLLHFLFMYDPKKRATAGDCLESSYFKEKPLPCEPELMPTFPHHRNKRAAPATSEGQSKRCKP
UniProt Q00526: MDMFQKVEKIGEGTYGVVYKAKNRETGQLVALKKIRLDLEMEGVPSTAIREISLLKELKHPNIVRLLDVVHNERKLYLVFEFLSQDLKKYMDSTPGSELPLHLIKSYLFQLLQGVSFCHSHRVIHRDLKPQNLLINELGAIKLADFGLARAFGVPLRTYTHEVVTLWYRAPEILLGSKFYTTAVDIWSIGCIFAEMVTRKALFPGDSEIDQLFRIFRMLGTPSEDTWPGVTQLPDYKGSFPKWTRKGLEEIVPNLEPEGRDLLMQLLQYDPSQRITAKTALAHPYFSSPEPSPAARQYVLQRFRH
UniProt Q00535, whole entry, looked up: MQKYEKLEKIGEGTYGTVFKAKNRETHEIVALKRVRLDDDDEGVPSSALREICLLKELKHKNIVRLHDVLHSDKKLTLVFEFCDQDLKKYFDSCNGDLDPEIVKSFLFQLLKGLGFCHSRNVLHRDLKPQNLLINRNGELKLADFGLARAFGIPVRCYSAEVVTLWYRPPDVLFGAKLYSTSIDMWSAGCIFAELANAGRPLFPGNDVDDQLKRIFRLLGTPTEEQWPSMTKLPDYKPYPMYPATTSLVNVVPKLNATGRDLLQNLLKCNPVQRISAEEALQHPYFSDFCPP
UniProt Q00534, whole entry: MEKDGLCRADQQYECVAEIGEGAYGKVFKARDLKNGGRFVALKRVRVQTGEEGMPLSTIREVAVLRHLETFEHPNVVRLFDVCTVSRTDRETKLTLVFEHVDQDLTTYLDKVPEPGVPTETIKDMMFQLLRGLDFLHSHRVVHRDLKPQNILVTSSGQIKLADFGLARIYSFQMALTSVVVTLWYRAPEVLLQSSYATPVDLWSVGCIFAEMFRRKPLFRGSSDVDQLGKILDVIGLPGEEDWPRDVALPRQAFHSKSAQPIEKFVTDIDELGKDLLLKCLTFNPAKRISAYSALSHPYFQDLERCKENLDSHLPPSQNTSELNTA
UniProt O96017, whole entry: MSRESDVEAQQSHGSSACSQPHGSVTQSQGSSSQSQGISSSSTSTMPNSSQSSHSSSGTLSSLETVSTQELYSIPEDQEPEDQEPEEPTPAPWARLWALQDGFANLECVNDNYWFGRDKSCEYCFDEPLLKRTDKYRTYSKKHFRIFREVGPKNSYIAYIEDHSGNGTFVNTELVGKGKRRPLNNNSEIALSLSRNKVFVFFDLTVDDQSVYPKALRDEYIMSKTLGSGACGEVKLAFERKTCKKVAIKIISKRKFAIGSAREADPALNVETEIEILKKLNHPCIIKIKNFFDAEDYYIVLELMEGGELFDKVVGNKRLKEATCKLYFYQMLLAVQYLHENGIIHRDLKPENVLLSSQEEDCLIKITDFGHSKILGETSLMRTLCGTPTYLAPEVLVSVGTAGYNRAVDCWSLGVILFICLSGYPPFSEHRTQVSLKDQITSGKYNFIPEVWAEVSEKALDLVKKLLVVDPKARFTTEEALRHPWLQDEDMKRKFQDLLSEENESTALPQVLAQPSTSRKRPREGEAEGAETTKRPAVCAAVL
UniProt P41240: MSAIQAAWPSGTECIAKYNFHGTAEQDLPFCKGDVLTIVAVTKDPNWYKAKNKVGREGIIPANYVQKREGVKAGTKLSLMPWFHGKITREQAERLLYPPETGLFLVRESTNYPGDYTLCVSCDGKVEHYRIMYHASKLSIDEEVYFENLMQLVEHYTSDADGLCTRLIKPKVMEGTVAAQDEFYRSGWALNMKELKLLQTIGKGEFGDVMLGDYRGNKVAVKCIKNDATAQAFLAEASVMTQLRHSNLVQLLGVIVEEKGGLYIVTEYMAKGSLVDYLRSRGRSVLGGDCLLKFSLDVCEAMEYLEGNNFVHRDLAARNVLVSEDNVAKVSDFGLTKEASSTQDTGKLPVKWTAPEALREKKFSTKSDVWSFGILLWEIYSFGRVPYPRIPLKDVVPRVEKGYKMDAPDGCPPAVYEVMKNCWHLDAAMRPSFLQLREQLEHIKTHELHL
UniProt P48729: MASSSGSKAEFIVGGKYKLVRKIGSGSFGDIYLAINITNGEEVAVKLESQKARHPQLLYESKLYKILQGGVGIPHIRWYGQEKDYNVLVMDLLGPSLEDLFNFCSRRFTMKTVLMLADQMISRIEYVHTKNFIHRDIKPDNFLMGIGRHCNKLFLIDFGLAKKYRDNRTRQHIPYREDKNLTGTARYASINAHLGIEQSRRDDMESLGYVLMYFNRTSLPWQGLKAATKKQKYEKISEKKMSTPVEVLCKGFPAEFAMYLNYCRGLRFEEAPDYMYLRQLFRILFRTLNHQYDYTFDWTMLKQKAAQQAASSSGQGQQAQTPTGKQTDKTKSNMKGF
UniProt P48730: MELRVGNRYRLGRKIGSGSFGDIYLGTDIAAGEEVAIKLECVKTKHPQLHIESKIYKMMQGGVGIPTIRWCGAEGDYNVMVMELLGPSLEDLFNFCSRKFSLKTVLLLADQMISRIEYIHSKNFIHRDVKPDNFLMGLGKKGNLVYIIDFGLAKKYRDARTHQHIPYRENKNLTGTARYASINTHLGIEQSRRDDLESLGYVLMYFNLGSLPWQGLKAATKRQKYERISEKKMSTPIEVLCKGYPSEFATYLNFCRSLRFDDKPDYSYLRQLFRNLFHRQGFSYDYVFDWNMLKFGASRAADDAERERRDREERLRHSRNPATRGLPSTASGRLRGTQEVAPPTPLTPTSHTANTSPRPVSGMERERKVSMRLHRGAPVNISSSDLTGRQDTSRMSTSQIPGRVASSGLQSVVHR
UniProt Q08345: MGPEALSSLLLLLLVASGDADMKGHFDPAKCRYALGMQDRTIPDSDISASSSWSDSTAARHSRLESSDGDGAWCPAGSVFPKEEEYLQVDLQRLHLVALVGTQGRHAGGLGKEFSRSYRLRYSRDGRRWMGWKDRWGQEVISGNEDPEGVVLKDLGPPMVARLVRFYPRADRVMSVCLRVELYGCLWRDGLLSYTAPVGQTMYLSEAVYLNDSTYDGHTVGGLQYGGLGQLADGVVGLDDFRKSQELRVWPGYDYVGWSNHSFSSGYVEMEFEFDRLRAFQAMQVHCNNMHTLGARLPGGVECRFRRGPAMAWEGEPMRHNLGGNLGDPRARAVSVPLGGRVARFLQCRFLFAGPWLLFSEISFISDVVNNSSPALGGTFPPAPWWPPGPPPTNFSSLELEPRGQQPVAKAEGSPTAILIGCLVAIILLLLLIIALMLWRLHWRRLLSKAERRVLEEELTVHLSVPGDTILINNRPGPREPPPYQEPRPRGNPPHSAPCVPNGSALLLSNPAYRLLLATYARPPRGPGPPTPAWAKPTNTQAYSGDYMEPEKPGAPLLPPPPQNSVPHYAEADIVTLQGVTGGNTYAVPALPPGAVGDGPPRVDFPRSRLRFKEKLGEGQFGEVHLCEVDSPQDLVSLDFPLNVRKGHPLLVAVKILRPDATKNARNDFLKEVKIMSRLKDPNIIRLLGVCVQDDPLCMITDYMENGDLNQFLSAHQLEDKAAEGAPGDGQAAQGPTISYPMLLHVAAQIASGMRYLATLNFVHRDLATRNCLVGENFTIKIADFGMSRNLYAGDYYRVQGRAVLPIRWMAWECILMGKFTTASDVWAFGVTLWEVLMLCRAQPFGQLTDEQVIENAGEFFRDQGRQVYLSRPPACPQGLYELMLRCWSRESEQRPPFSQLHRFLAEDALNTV
UniProt Q9Y463, whole entry, looked up: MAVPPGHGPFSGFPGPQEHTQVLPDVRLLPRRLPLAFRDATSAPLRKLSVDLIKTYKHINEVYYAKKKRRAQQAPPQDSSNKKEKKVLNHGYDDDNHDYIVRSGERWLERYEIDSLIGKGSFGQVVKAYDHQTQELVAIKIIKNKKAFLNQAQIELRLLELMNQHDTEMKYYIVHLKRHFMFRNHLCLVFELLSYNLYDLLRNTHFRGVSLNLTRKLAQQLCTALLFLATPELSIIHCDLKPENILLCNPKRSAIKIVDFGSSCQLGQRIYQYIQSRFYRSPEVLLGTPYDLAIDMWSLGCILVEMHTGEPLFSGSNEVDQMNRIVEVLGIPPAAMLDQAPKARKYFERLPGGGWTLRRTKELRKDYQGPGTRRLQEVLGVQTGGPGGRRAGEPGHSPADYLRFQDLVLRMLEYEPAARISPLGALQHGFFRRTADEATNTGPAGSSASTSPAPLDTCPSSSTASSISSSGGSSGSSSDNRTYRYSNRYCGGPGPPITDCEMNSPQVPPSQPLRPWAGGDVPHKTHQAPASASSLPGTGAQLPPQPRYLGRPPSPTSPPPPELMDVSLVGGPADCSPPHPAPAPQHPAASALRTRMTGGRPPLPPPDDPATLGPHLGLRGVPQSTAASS
UniProt Q92630: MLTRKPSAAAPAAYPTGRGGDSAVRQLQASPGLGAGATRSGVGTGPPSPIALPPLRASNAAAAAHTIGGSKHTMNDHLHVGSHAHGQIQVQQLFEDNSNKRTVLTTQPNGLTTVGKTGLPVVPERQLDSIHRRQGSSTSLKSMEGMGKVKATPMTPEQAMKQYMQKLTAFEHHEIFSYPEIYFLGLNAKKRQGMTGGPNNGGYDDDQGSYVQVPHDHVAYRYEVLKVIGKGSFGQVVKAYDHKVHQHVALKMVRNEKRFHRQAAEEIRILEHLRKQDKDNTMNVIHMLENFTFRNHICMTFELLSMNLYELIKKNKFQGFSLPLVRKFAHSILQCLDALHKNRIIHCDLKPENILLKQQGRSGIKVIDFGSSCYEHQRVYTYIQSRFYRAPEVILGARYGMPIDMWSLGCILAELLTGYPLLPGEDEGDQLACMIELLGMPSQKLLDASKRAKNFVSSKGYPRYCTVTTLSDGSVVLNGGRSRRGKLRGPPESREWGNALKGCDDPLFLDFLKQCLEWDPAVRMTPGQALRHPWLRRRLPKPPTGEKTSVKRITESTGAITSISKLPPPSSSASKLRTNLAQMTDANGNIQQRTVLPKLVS

Experiments:
Experiment in all cases: number of time points (of 5) at which kinase-Nluc abundance scored as decreased, DMSO-normalised (count); higher = more persistent destabilization
Details in all cases: K562; 2-18 h
[1] = biological target: CAMK2A (UniProt Q9UQM7)
[2] = biological target: CAMK2G (UniProt Q13555)
[3] = biological target: CDK10 (UniProt Q15131)
[4] = biological target: CDK2 (UniProt P24941)
[5] = biological target: CDK3 (UniProt Q00526)
[6] = biological target: CDK5 (UniProt Q00535)
[7] = biological target: CDK6 (UniProt Q00534)
[8] = biological target: CHEK2 (UniProt O96017)
[9] = biological target: CSF1R (UniProt P07333)
[10] = biological target: CSK (UniProt P41240)
[11] = biological target: CSNK1A1 (UniProt P48729)
[12] = biological target: CSNK1D (UniProt P48730)
[13] = biological target: DDR1 (UniProt Q08345)
[14] = biological target: DYRK1B (UniProt Q9Y463)
[15] = biological target: DYRK2 (UniProt Q92630)
[16] = biological target: EGFR (UniProt P00533)
[17] = biological target: EGFR_G719S (UniProt P00533)
[18] = biological target: EGFR_G719S_T790M (UniProt P00533)
[19] = biological target: EGFR_L718V (UniProt P00533)
[20] = biological target: EGFR_L858R (UniProt P00533)

Measured: number of time points

CC[C@@H](N)CNc1ccnc(-c2cc(-c3cnn(C)c3)ccc2O)n1 (2.5 µM)
1: [15]
0: all other assays above

C=CC(=O)N1CCC(Oc2cc3c(Nc4ccc(Cl)c(Cl)c4F)ncnc3cc2OC)CC1 [Poziotinib] (2.5 µM)
0: all assays above

C[C@H]1Cc2ccccc2N1C(=O)Cc1nc(N2CCOCC2)cc(=O)[nH]1 (2.5 µM)
0: all assays above

CC(C)c1cnn2c(NCc3ccccc3-n3cccn3)nc(OC3CCCNC3)nc12 (stereo not given) (2.5 µM)
1: [13] | [19]
2: [16]
0: all other assays above

CC(C)n1cnc2c(Nc3cccc(Cl)c3)nc(NCCO)nc21 (10 µM)
1: [15]
0: all other assays above

O=C(O)c1ccc(-c2c[nH]c3ncc(-c4ccccc4)cc23)cc1C1CCCC1 (2.5 µM)
0: all assays above

Nc1nc2cc(-c3ccc4ncc(C(=O)N5CCOCC5)n4c3)ccc2o1 [Serabelisib] (10 µM)
0: all assays above

CC(C)(C)c1cc(C(c2cc3c(cc2O)OCO3)N2CCOCC2)cc(C(C)(C)C)c1O (stereo not given) (2.5 µM)
0: all assays above

COc1cc(-c2cc(-c3cc(OC)c(OC)c(OC)c3)cc(C(F)P(=O)(OCOC(=O)C(C)(C)C)OCOC(=O)C(C)(C)C)c2)cc(OC)c1OC (stereo not given) [Stafia-1-dipivaloyloxymethyl ester] (2.5 µM)
0: all assays above

No new results follow: 2 of the compounds above.
C[C@H]1Cc2ccccc2N1C(=O)Cc1nc(N2CCOCC2)cc(=O)[nH]1 (2.5 µM)
0: all assays above

CC(C)c1cnn2c(NCc3ccccc3-n3cccn3)nc(OC3CCCNC3)nc12 (stereo not given) (2.5 µM)
1: [13] | [19]
2: [16]
0: all other assays above

Carrying on:

CC1=C(C(=O)Nc2ccc3[nH]ncc3c2)C(c2ccc(F)cc2)NC(=O)N1 (stereo not given) (10 µM)
2: [4]
0: all other assays above

CCc1ccc(C(=O)COc2ccc(CC3SC(=O)NC3=O)cc2)nc1 (stereo not given) (10 µM)
0: all assays above

CCCCOc1ccc(CC/C=C2\SC(=O)N(CCN)C2=O)cc1 [K145 (hydrochloride)] (2.5 µM)
0: all assays above
